Data taken from ChEMBL document CHEMBL3988442, “University of Dundee, Small-Polar-MMV Screening Library” (2021).

Protein sequences, listed by entry. Tags and fused reporters are not part of them.
UniProt E9BF75, entry or part of it: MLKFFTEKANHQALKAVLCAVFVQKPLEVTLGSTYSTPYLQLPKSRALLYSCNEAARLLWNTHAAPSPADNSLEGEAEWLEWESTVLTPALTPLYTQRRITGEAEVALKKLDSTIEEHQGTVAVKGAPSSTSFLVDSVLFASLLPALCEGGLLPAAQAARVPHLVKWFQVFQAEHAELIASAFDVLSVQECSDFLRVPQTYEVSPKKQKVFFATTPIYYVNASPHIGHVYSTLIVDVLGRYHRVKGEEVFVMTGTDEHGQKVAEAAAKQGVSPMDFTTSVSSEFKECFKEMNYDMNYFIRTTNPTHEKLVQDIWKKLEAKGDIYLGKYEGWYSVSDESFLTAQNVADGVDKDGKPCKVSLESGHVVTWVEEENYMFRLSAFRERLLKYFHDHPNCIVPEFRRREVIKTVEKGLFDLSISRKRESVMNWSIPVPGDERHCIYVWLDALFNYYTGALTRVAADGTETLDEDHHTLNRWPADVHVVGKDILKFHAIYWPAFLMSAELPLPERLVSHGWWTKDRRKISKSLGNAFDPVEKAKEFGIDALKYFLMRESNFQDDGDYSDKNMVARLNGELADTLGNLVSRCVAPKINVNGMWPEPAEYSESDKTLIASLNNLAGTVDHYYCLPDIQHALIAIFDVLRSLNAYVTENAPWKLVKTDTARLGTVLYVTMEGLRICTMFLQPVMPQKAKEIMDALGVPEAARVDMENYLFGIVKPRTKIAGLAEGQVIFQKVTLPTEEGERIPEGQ

A: 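Methionyl-tRNA synthetase (putative), Leishmania donovani (UniProt E9BF75). Primary screen of methionyl-tRNA synthetase; the read-out is not stated. The test concentration is not given. The values are filed as inhibition. About 68,000 compounds were tested under these conditions; 0.035% (about 24) showed 50% or more at least once.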
B: 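Assay on Mycobacterium tuberculosis, filed only as a heat shock assay from Cornell; the read-out is not stated. The concentration is filed as 10 mM, unlikely as a test dose, so the dose is not known. The record gives no direction; compounds that gave an IC50 in retests scored well above the rest, so higher reads as stronger inhibition. Of about 69,000 compounds tested this way, about 930 (1.4%) reached 50% or more in at least one test.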

All values are in %.
The controls that fix the scale are not given in the record; negative values are as filed.
Compounds were drawn at random from those tested, without regard to their results.

* COc1ccccc1C(NC(=O)CN(C)C(C)C)c1noc(C)n1 (centres unmarked) : A: 14.2%; B: -125.6%
* Cc1ccc(CN2C[C@H]3CN(C(=O)c4ccno4)CCN3C2=O)cc1 : A: 10.99%
* CCn1c(N)nc2cc(C(=O)NCCc3ccncc3)cnc21 : A: 13.91%; B: 14.1%
* COc1cc(C2(C(=O)N3CCCC(n4cncn4)C3)CC2)ccc1C (centres unmarked) : A: 6.983%; B: -14.3%
* CN(Cc1cc2n(n1)CCNC2)Cc1noc(C2CCC2)n1 : A: 1.818%; B: 2.225%
* c1cnn(CCNCc2csc(-c3ccsc3)n2)c1 : A: 4.294%; B: 52.72%
* COc1ccc(-c2c(C)nn3c(=N)c(C#N)n[nH]c23)cc1OC : A: 11.26%; B: -0.8495%
* COc1ccccc1CC1CCCN(CCN2CCOC2=O)C1 (centres unmarked) : A: 8.101%; B: 14.01%
* Cc1ccccc1C(C(=O)O)N(C)CC1CCOCC1 (centres unmarked) : A: 10%; B: -13.7%
* CCn1cc(CN2CCCN(C(=O)c3ccc(C#N)cc3)CC2)cn1 : A: 20%; B: -3.321%
* CCS(=O)(=O)N1Cc2ncn(CC3CC3)c2C(COC)C1 (centres unmarked) : A: 1.523%; B: -25.83%
* O=C(c1ccncn1)N1CCC[C@]2(C[C@H](OCC3CC3)CO2)C1 : A: 5.473%; B: 3.826%
* CN1CCN(c2ccc3ccc(C(=O)N4CCCO4)cn23)CC1 : A: 9.424%
* Cc1cc(C(=O)NCC2SCCc3ccccc32)no1 (centres unmarked) : A: 11.23%; B: 31.97%
* COc1ccc(CNC(=O)CCN2CCOC(C(F)(F)F)C2)cc1 (centres unmarked) : A: 12.2%; B: -33.16%
* CC(C)(C)c1nc(CC(=O)NCCC(=O)Nc2ccncc2)cs1 : A: 6.983%; B: -20.63%
* CCO[C@H]1CC[C@H]2[C@H]1OCCN2C(=O)CC1=CCCCC1 : A: -2.198%
* O=C(O)C(F)(F)F.[H][C@@]12OCCN(c3ncc(F)cn3)[C@@]1([H])CC[C@H]2OCC1CCOCC1 : B: 47.96%
* CC(=O)N[C@@H]1CN(C(=O)c2ccc[nH]2)C[C@H]1c1ccc(C)o1 : A: 17.69%; B: -6.993%
* [H][C@@]12CN(Cc3ccccn3)C(=O)N1CCN(C1CCOCC1)C2 : B: -6.613%
* CN1CCN(c2ncccc2N)CC1 : A: 13.48%; B: 11.37%
* CO[C@@H]1CC[C@@H](NC(=O)c2ccc(OCCN3CCCC3)cc2)[C@H]1O : A: 16.2%; B: 1.392%
* O=C(NCc1csc2ccccc12)NCC1(O)CCSC1 (centres unmarked) : A: 15.73%; B: -11.35%
* O=C(c1ccccc1)N1CCC[C@]2(C[C@@H](OCc3ccccn3)CO2)C1 : A: 15.42%
* Cc1nnc(NCCc2nc3ccc(F)cc3n2C)c(C#N)c1C : A: 13.17%; B: -4.705%
* c1cnc(N2CC[C@@H](OCC3CC3)[C@@H]2Cc2cccnc2)nc1 : A: 0.5495%
* CC(C)(C)C(O)CN1CCN(CC(=O)NCC(F)(F)F)CC1 (centres unmarked) : A: -1.934%; B: -21.57%
* CCN(Cc1cccc(Cl)c1)Cc1nc2c(cnn2C)c(=O)[nH]1 : A: 3.472%; B: 3.963%
* COc1ccc(C(NCc2cccc(C#N)c2)C(C)C)cc1 (centres unmarked) : A: 10.45%; B: -14.9%
* COc1cccc(CNCc2ccccc2Cl)c1O : A: 13.04%; B: -14.7%
* O=C(O)C(F)(F)F.O=C(O)C(F)(F)F.c1ccc(N2CC[C@H](OCC3CC3)[C@@H]2Cc2cccnc2)nc1 : B: 14.43%
* CNC(=O)CS(=O)(=O)C1CCN(S(=O)(=O)C2CC2)CC1 : A: 8.374%; B: 5.845%
* Cc1cnn(C2CCCN(C(=O)c3ccc(N(C)C)nn3)C2)c1 (centres unmarked) : A: 13.36%; B: 8.707%
* Cc1nc(O)cc(CCNC(=O)CN2CCCCCC2)n1 : A: 10.31%; B: 5.309%
* CC1CCCN(S(=O)(=O)NCCN/C(O)=C2/N=CC=CC2=O)C1 (centres unmarked) : A: 12.33%; B: -11.42%
* Cc1cccc(C(=O)N2CCCC(Cc3cncc4ccccc34)C2)n1 (centres unmarked) : A: 16.77%; B: 2.036%
* Cc1nc(N2CCOCC2)nc2c1CN(CC(=O)N(C)C)CC2 : A: 12.64%; B: 7.886%
* Cc1cnn(CC2CN(c3ccc(C#N)cn3)CCO2)c1 (centres unmarked) : A: 1.397%; B: -1.221%
* Cc1cccc(NC(=O)N2CCCn3cnc(CN(C)C(C)C)c3C2)c1 : A: -0.2208%
* Cn1nccc1CNC(=O)Cn1nc(C(F)(F)F)cc1C1CC1 : A: 9.459%; B: -3.801%
* O=C(NCCN1CCOCC1)c1ccnn1-c1ccc2ccccn12.O=C(O)C(F)(F)F : B: -41.26%
* COCCN1CCCC(CCCc2ccccn2)(C(N)=O)C1 (centres unmarked) : A: 14.58%; B: -1.427%
* [H][C@@]12CCN(Cc3nc(C)cs3)C[C@@]1([H])O[C@H](c1nnc(C)[nH]1)C2 : B: -3.079%
* Cc1nc[nH]c1C(=O)N1CCC2(CN(C)C(=O)O2)C1 (centres unmarked) : A: 11.76%; B: -14.76%

For reference, 6 entries once more:

- CC(=O)N[C@@H]1CN(C(=O)c2ccc[nH]2)C[C@H]1c1ccc(C)o1 | A: 17.69%; B: -6.993%
- c1cnn(CCNCc2csc(-c3ccsc3)n2)c1 | A: 4.294%; B: 52.72%
- O=C(NCc1csc2ccccc12)NCC1(O)CCSC1 (centres unmarked) | A: 15.73%; B: -11.35%
- CN1CCN(c2ccc3ccc(C(=O)N4CCCO4)cn23)CC1 | A: 9.424%
- COc1ccccc1C(NC(=O)CN(C)C(C)C)c1noc(C)n1 (centres unmarked) | A: 14.2%; B: -125.6%
- COc1ccc(CNC(=O)CCN2CCOC(C(F)(F)F)C2)cc1 (centres unmarked) | A: 12.2%; B: -33.16%